Source: article PMC7819943, “Rice protein-binding microarrays: a tool to detect cis-acting elements near promoter regions in rice”
This is one part of the list.

Molecular target: T1, OsSMF1 (Oryza sativa, UniProt Q6ZLB0 1-436)
T1 sequence: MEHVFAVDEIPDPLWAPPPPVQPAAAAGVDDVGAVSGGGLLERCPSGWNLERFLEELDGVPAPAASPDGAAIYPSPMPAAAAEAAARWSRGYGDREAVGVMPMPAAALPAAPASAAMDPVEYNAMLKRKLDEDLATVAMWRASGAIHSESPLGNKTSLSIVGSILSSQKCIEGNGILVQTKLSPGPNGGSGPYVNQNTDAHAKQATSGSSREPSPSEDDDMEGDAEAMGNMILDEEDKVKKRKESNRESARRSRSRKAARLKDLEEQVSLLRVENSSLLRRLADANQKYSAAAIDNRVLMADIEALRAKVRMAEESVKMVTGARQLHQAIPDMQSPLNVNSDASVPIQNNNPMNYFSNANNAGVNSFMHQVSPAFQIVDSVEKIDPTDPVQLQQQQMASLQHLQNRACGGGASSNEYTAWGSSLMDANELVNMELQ
Assay: protein-binding microarray (RPBM); PBS, 2% BSA, 51.3 ng/ul salmon testes DNA, 50 uM zinc acetate, 200 nM TF, 25 C, 1 h; high values mean tight binding
Conditions: protein: recombinant; tags: N-terminal polyhistidine and DsRed monomer fusion (pET32a); chain copies: 2; label: CyDye5-dUTP incorporated in the synthesized complementary strand; 3' TTTTT single-stranded linker to array surface; dsDNA, one strand shown
Summary of the method: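 For the binding signal, per-feature fluorescence intensity was read in arbitrary units on an Axon 4000B scanner. Before scanning, a 2% BSA-blocked custom Agilent array made double-stranded with Cy5-dUTP was washed after 1 h at 25 °C with 200 nM protein and 50 µM zinc acetate. The proteins were Ni–NTA-purified transcription factors with N-terminal polyhistidine and DsRed fusions, expressed in E. coli BL21-CodonPlus.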

Row | Sequence | binding signal
1 | ACAGACAATTCACAGGGGTCCTACTGCAAATATGTTACTACGGAGTCACCTAGTGCAG | 3160 fluorescence intensity (a.u.)
2 | GGGTATGACGATCGACAGCATGACGAGGATCCAAATAGTTCGGAGTCACCTAGTGCAG | 5750 fluorescence intensity (a.u.)
3 | GTAATAACCTTTTCGTCGACGAGGCATAAATCGGCTGCACCGGAGTCACCTAGTGCAG | 3390 fluorescence intensity (a.u.)
4 | TACTTAATTTCTTTTAAATTGGTTCATATGTGTTTAGTTGCGGAGTCACCTAGTGCAG | 31800 fluorescence intensity (a.u.)
5 | CTCCAACGTCGCCGCTCCAGCCCCGATCCACGCCGCCGCACGGAGTCACCTAGTGCAG | 3400 fluorescence intensity (a.u.)
6 | GCGAGAGGGGACTGGGGAGGGGAGGGGCGGCGCTCGCTGGCGGAGTCACCTAGTGCAG | 8160 fluorescence intensity (a.u.)
7 | TAGCTCTCGCCAGTCCACGTAGCCCAATCCACAACCGCCACGGAGTCACCTAGTGCAG | 5700 fluorescence intensity (a.u.)
8 | TAATCTATACGGAGGATGTTGCCATGTAGGACCCCAAAAGCGGAGTCACCTAGTGCAG | 35500 fluorescence intensity (a.u.)
9 | AAATAAGAATGATGTCACGAGAAAATCACTCTCATCATCACGGAGTCACCTAGTGCAG | 5390 fluorescence intensity (a.u.)
10 | ACCGTCCTCCTCGTCACCCACCAGCTCGACTTCCTCCGCACGGAGTCACCTAGTGCAG | 5570 fluorescence intensity (a.u.)
11 | ACGCAGTAATGACGTCACAATGTTGGTATCACCGAAACCACGGAGTCACCTAGTGCAG | 16500 fluorescence intensity (a.u.)
12 | TATGGCAAGCTAAAGTCTCTGTTTCAAATAAACGACACGTCGGAGTCACCTAGTGCAG | 3380 fluorescence intensity (a.u.)
13 | CGGATCGACGGACTGGACGGGGAGTTTTGAGATTGCGTCACGGAGTCACCTAGTGCAG | 3640 fluorescence intensity (a.u.)
14 | AGGACAGAGGAGAGGGGAGGGGTAATATGTGTCCAATAATCGGAGTCACCTAGTGCAG | 4080 fluorescence intensity (a.u.)
15 | AACCCACACACACCTCACACCTCACCACCATCACCTCCTCCGGAGTCACCTAGTGCAG | 3140 fluorescence intensity (a.u.)
16 | CGCCGTCTCCACGGCCGAAGCTTCCACTTCAGCCCCACGTCGGAGTCACCTAGTGCAG | 4060 fluorescence intensity (a.u.)
17 | TAGAAATATTTGGTCACCTGTTTTCTCGGTGACGATTGATCGGAGTCACCTAGTGCAG | 3570 fluorescence intensity (a.u.)
18 | AATTCGCAGAAACCCGGTGACTTGTTTAGGACCCTAATGACGGAGTCACCTAGTGCAG | 7240 fluorescence intensity (a.u.)
19 | GCTCCATGACACGACAGCGCGTTTGGGAACGCCTCGTGATCGGAGTCACCTAGTGCAG | 4960 fluorescence intensity (a.u.)
20 | AGATATGTATGTGTGAGTATTCTAGTAATGAACTGCACCACGGAGTCACCTAGTGCAG | 3920 fluorescence intensity (a.u.)
21 | CAAATAGAACATAGCCATACGAAATGACTCACTAACCTCTCGGAGTCACCTAGTGCAG | 4910 fluorescence intensity (a.u.)

From entry 1 as far as 2, as listed above:
Row | Sequence | binding signal
1 | ACAGACAATTCACAGGGGTCCTACTGCAAATATGTTACTACGGAGTCACCTAGTGCAG | 3160 fluorescence intensity (a.u.)
2 | GGGTATGACGATCGACAGCATGACGAGGATCCAAATAGTTCGGAGTCACCTAGTGCAG | 5750 fluorescence intensity (a.u.)

Additional results.

Row | Sequence | binding signal
22 | GGTGGCCCTCCCCTTAGCGGCATATCTCCTCGGTGGCGGGCGGAGTCACCTAGTGCAG | 3450 fluorescence intensity (a.u.)
23 | TCCCTCACTCCAACCCATCCGGTGACATCAATCCACACACCGGAGTCACCTAGTGCAG | 5810 fluorescence intensity (a.u.)
24 | CCTATATGGCCCAACATGTCATCTCCCTACTCCCTCTTCTCGGAGTCACCTAGTGCAG | 3840 fluorescence intensity (a.u.)
25 | ACACACAACACAGGAGAAGATGGACGTGTCAATTTACGGACGGAGTCACCTAGTGCAG | 3310 fluorescence intensity (a.u.)
26 | TTACTGTTTAATAGCCACGCATCACATAAGTGCGACTTGACGGAGTCACCTAGTGCAG | 3730 fluorescence intensity (a.u.)
27 | TTCTAATTTCTTGAGAGATATTTTCCGATTTATATTAATTCGGAGTCACCTAGTGCAG | 10600 fluorescence intensity (a.u.)
28 | GCCCGGATCGGCCGGCATTCCCCGCCCCGCGCGCGCTCCGCGGAGTCACCTAGTGCAG | 3400 fluorescence intensity (a.u.)
29 | GGCTTCGTCATCTCTCCCGACTTCTGACAACGTGGTAGTGCGGAGTCACCTAGTGCAG | 5660 fluorescence intensity (a.u.)
30 | AAAGGAAGTTTGATACAGCAGGTCAAGCTCAAGGTCAAAACGGAGTCACCTAGTGCAG | 28300 fluorescence intensity (a.u.)
31 | GATGAAGTTTGTTGGCACTGATGAGTTGCCTGGACCAGCACGGAGTCACCTAGTGCAG | 3180 fluorescence intensity (a.u.)
32 | ACCCATGCCGAAGATGGACATGACAGATCGATCTTGTCTCCGGAGTCACCTAGTGCAG | 3700 fluorescence intensity (a.u.)
33 | AGCGATGATCTAGCCATAAATCTTTCCGTTGACTCTCGCGCGGAGTCACCTAGTGCAG | 31600 fluorescence intensity (a.u.)
34 | ATTTCAGTGAGCTGACCTTGGCGCAGGCCGCCTCCAAGAACGGAGTCACCTAGTGCAG | 4430 fluorescence intensity (a.u.)
35 | ACACTGTTCACCATGATCCACGTATATATGTGACGAAAATCGGAGTCACCTAGTGCAG | 4560 fluorescence intensity (a.u.)
36 | GCTGCCGCACCGCGCGATGCGTGACCTGGCCGGCGTGCACCGGAGTCACCTAGTGCAG | 5920 fluorescence intensity (a.u.)
37 | TGCTACTTGCTCGTGGGATCATCATATTGCTGTCGACCTGCGGAGTCACCTAGTGCAG | 3660 fluorescence intensity (a.u.)
38 | TCAACCTCAACAACGCCGGTGTGAGGGTCCTCGAGGCCACCGGAGTCACCTAGTGCAG | 17900 fluorescence intensity (a.u.)
39 | ATATATACATGTATGGTTCGAGTCATGACATAGACGGAAGCGGAGTCACCTAGTGCAG | 3220 fluorescence intensity (a.u.)
40 | TCAATACAAAAGGCCCATGTGGAGACTGAAACCCAACGTACGGAGTCACCTAGTGCAG | 3540 fluorescence intensity (a.u.)
41 | TTCCCTCTAAGTTATTGCCGTGTCGTTCTTATCTTAACCACGGAGTCACCTAGTGCAG | 4050 fluorescence intensity (a.u.)
42 | CCTGCATGCGTGGCTGCGCTCACTGTCGTTATTTGCTTTACGGAGTCACCTAGTGCAG | 5080 fluorescence intensity (a.u.)
